# From article PMC5853512, “Arabidopsis MKK10-MPK6 mediates red-light-regulated opening of seedling cotyledons through phosphorylation of PIF3” (Journal of Experimental Botany, 2017)
# Protein sequences, listed by entry. Tags and fused reporters are not part of them.
# UniProt Q39026: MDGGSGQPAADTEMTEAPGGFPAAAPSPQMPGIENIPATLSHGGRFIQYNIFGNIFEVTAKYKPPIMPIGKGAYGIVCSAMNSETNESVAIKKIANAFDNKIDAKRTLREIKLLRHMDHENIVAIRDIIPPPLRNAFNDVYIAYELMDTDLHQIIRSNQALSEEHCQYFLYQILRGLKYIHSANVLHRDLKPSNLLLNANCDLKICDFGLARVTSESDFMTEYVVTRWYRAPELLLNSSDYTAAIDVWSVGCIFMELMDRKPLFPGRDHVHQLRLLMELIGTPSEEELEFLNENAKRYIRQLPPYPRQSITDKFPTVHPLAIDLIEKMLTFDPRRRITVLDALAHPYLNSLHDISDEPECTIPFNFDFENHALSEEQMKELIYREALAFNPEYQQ
# These are yes or no findings as the source states them, for the method shown. Binding seen in cells or lysates may run through a third protein. Some binding calls cover weakened binding; strength is not graded here. Tags and fused reporters may be left off the sequences shown.
# Molecular target: T1, MYC-PIF3 (Arabidopsis thaliana) (UniProt O80536)
# T1 sequence: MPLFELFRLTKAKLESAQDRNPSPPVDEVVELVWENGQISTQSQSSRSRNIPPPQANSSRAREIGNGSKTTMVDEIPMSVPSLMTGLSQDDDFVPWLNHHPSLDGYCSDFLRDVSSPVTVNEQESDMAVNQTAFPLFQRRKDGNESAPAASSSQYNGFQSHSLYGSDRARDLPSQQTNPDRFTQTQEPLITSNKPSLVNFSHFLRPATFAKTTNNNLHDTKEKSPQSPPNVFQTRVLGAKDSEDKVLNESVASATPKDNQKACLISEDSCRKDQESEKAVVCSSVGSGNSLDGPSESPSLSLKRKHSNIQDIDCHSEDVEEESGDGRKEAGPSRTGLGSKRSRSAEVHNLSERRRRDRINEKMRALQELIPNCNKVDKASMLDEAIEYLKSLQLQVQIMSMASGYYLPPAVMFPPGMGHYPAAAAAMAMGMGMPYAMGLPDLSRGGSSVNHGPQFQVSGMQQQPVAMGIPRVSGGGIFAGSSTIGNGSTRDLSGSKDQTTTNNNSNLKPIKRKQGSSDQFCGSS
# Test: co-IP; extracts (kinase buffer with 40 μM MG132) of dark-grown PIF3 OE seedlings exposed to 30 μmol m^-2 s^-1 R light or 8 μmol m^-2 s^-1 B light for 0, 30 and 60 s; anti-MYC beads 3.5 h at 4 °C in the dark; immunoblot with anti-MPK6 and anti-MYC
substance,measurement,value
MPK6 (from UniProt Q39026 1-395) (enzyme),binding,binds
